Measured values published in the supplement of paper PMC4807443.
Counter-ions that a name gives are not always drawn. The list shows a part of the results. The numbers are fractions of the control, whatever unit the source prints. Most values lie at the level of the controls, where differences are scatter.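 MIN6 is a mouse insulinoma beta-cell line that stably carries a lentiviral reporter in which the Pdx1 and Ins1 promoters each drive a nucleus-targeted fluorescent protein; cells were counted by automated imaging with a Hoechst nuclear stain. In the screen, a drug was a possible hit when its Ins1 promoter readout lay beyond two median absolute deviations from the DMSO controls while Pdx1 activity stayed near normal.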

Test system: MIN6
Assay: % Pdx1+ Ins1+ (double-positive, mature) cells relative to DMSO control (fold of DMSO control); higher = more mature Ins1 promoter-active cells
Details: 8.5 µM; 48 h; glucose 5 mM

First: Cn1cnc2c1c(=O)[nH]c(=O)n2C [Theobromine]
Second: CC(O)Cn1cnc2c1c(=O)n(C)c(=O)n2C (centres undefined) [Proxyphylline]
The “% Pdx1+ Ins1+” value of the first is higher: 0.979 for the first, 0.881 for the second.

First: CCN(CC)CCNC(=O)c1cc(Cl)c(N)cc1OC [Metoclopramide monohydrochloride]
Second: CCN(CC)CC(=O)Nc1c(C)cccc1C [Lidocaïne hydrochloride]
The “% Pdx1+ Ins1+” value of the first is higher: 1.18 for the first, 0.994 for the second.

Compared with `CCOc1ccc2ccccc2c1C(=O)N[C@@H]1C(=O)N2[C@@H]1SC(C)(C)[C@@H]2C(=O)O` [Nafcillin sodium salt monohydrate], `CC1(C)S[C@@H]2[C@H](NC(=O)[C@H](N)c3ccccc3)C(=O)N2[C@H]1C(=O)O` [Ampicillin trihydrate] is higher in “% Pdx1+ Ins1+” value: 0.923 for the first, 1.11 for the second.

Going from `CN(C)C/C=C(/c1ccc(Br)cc1)c1cccnc1` [Zimelidine dihydrochloride monohydrate] to `Cc1c(NC(=O)c2cccnc2)c(=O)n(-c2ccccc2)n1C` [Nifenazone], the “% Pdx1+ Ins1+” value falls from 1.11 to 0.948.

Going from `CC(C)(CO)C(O)C(=O)NCCCO` (centres undefined) [Panthenol (D)] to `CC(N)CCCC(C)(C)O` (centres undefined) [Heptaminol hydrochloride], the “% Pdx1+ Ins1+” value falls from 1.03 to 0.721.

First: Cc1ccc2c(c1)c1c3n2CCNC3CCC1 (centres undefined) [Pirlindole mesylate]
Second: CCCC1C(=O)N2C(N(C)C)=Nc3ccc(C)cc3N2C1=O (centres undefined) [Azapropazone]
The “% Pdx1+ Ins1+” value of the first is lower: 0.874 for the first, 0.954 for the second.

First: CCC[C@@H]1C[C@@H](C(=O)N[C@@H]([C@H]2O[C@H](SC)[C@H](O)[C@@H](O)[C@H]2O)[C@H](C)Cl)N(C)C1 [Clindamycin hydrochloride]
Second: C[C@H](CCC(=O)O)[C@H]1CC[C@H]2[C@@H]3[C@@H](O)C[C@@H]4C[C@H](O)CC[C@]4(C)[C@H]3CC[C@]12C [Urosiol]
The “% Pdx1+ Ins1+” value of the first is higher: 1.06 for the first, 0.954 for the second.

Compared with `O=C(N[C@H](CO)[C@H](O)c1ccc([N+](=O)[O-])cc1)C(Cl)Cl` [Chloramphenicol], `CC(C)NC[C@@H](O)COc1ccc(CC(N)=O)cc1` [(R)-(+)-Atenolol] is lower in “% Pdx1+ Ins1+” value: 1.1 for the first, 0.852 for the second.

Going from `CN(C)CCC=C1c2ccccc2COc2ccccc21` [Doxepin hydrochloride] to `CC(C)[N+](C)(CCOC(=O)C1c2ccccc2Oc2ccccc21)C(C)C` [Propantheline bromide], the “% Pdx1+ Ins1+” value falls from 1.02 to 0.751.

Compared with `Nc1ccccc1S(N)(=O)=O` [2-Aminobenzenesulfonamide], `CC(=O)NS(=O)(=O)c1ccc(N)cc1` [Sulfacetamide sodic hydrate] is higher in “% Pdx1+ Ins1+” value: 0.959 for the first, 1.11 for the second.

First: O=C(O)c1cn(C2CC2)c2cc(N3CCNCC3)c(F)cc2c1=O [Ciprofloxacin hydrochloride]
Second: Cc1nc2ccccn2c(=O)c1CCN1CCC(C(=O)c2ccc(F)cc2)CC1 [Pirenperone]
The “% Pdx1+ Ins1+” value of the first is lower: 0.994 for the first, 1.06 for the second.

Going from `C1COC(NC(C2CC2)C2CC2)=N1` [Rilmenidine hemifumarate] to `C1CCC(C(CC2CCCCN2)C2CCCCC2)CC1` (centres undefined) [Perhexiline maleate], the “% Pdx1+ Ins1+” value rises from 0.787 to 0.917.

First: COc1cc(C(=O)NCc2ccc(OCCN(C)C)cc2)cc(OC)c1OC [Trimethobenzamide hydrochloride]
Second: COc1ccc2cc([C@H](C)C(=O)O)ccc2c1 [Naproxen]
The “% Pdx1+ Ins1+” value of the first is higher: 1.12 for the first, 0.918 for the second.

Compared with `CC(C)NCC(O)COc1ccc(CCOCC2CC2)cc1` (centres undefined) [Betaxolol hydrochloride], `CC(C)OC(=O)C(C)(C)Oc1ccc(C(=O)c2ccc(Cl)cc2)cc1` [Fenofibrate] is higher in “% Pdx1+ Ins1+” value: 0.916 for the first, 1.09 for the second.

Compared with `CCc1nc(N)nc(N)c1-c1ccc(Cl)cc1` [Pyrimethamine], `N/C(=N\C(=O)c1nc(Cl)c(N)nc1N)NCc1ccccc1` [Benzamil hydrochloride] is lower in “% Pdx1+ Ins1+” value: 1 for the first, 0.826 for the second.

Compared with `CC(=O)[C@@]1(O)CC[C@H]2[C@@H]3C[C@H](C)C4=CC(=O)C=C[C@]4(C)[C@@]3(F)[C@@H](O)C[C@@]21C` [Fluorometholone], `CC(=O)OCC(=O)[C@@]12OC(C)(C)O[C@@H]1C[C@H]1[C@@H]3C[C@H](F)C4=CC(=O)C=C[C@]4(C)[C@@]3(F)[C@@H](O)C[C@@]12C` [Fluocinonide] is lower in “% Pdx1+ Ins1+” value: 0.858 for the first, 0.819 for the second.

Going from `C[C@H]1c2cccc(O)c2C(=O)C2=C(O)[C@]3(O)C(=O)C(C(N)=O)=C(O)[C@@H](N(C)C)[C@@H]3[C@@H](O)[C@@H]21` [Doxycycline hydrochloride] to `COc1cccc2c1C(=O)c1c(O)c3c(c(O)c1C2=O)C[C@@](O)(C(C)=O)C[C@@H]3O[C@H]1C[C@H](N)[C@H](O)[C@H](C)O1` [Daunorubicin hydrochloride], the “% Pdx1+ Ins1+” value falls from 1.08 to 0.342.

Going from `C[C@](N)(Cc1ccc(O)c(O)c1)C(=O)O` [Methyldopa (L,-)] to `CCCCc1ccc2[nH]c(NC(=O)OC)nc2c1` [Parbendazole], the “% Pdx1+ Ins1+” value falls from 0.932 to 0.864.

Going from `c1cnc(N2CCN(Cc3ccc4c(c3)OCO4)CC2)nc1` [Piribedil hydrochloride] to `O=C(CCCN1CCN(c2ccccn2)CC1)c1ccc(F)cc1` [Azaperone], the “% Pdx1+ Ins1+” value rises from 0.929 to 1.04.

Compared with `CN1CCCN=C1/C=C/c1cccc(O)c1` [Oxantel pamoate], `c1ccc2c(CC3=NCCN3)cccc2c1` [Naphazoline hydrochloride] is lower in “% Pdx1+ Ins1+” value: 1.02 for the first, 0.899 for the second.

Compared with `CC1(C)S[C@@H]2[C@H](NC(=O)C3(N)CCCCC3)C(=O)N2[C@H]1C(=O)O` [Cyclacillin], `C[C@@H]1C[C@H]2[C@@H]3CCC4=CC(=O)C=C[C@]4(C)[C@@]3(Cl)[C@@H](O)C[C@]2(C)[C@@]1(OC(=O)c1ccco1)C(=O)CCl` [Mometasone furoate] is lower in “% Pdx1+ Ins1+” value: 0.888 for the first, 0.882 for the second.

Going from `C[C@@H]1CCC[C@H](C)N1` [(cis-) Nanophine] to `CC1CC(OC(=O)c2ccccc2O)CC(C)(C)C1` (centres undefined) [Homosalate], the “% Pdx1+ Ins1+” value rises from 0.86 to 0.903.

Compared with `C[C@H]1[C@H](C)CC[C@]2(C(=O)O[C@@H]3O[C@H](CO[C@@H]4O[C@H](CO)[C@@H](O[C@@H]5O[C@H](C)[C@H](O)[C@@H](O)[C@H]5O)[C@H](O)[C@H]4O)[C@@H](O)[C@H](O)[C@H]3O)CC[C@]3(C)C(=CC[C@@H]4[C@@]5(C)C[C@@H](O)[C@H](O)[C@@](C)(CO)[C@@H]5CC[C@]43C)[C@H]12` [Asiaticoside], `NC[C@@H]1O[C@@H](O[C@H]2[C@H](O)[C@@H](O[C@H]3O[C@H](CO)[C@@H](O)[C@H](N)[C@H]3O)[C@H](N)C[C@@H]2N)[C@@H](O)[C@H](O)[C@H]1O` [Kanamycin A sulfate] is higher in “% Pdx1+ Ins1+” value: 0.948 for the first, 0.974 for the second.

First: Cc1c(O)c(=O)n(-c2ccccc2)n1C [Antipyrine, 4-hydroxy]
Second: O=C(O)c1ccccc1OP(=O)(O)O [Fosfosal]
The “% Pdx1+ Ins1+” value of the first is higher: 1.06 for the first, 1 for the second.

Compared with `CN1CCCN(C(c2ccccc2)c2ccc(Cl)cc2)CC1` (centres undefined) [Homochlorcyclizine dihydrochloride], `CN1CCN(C(c2ccccc2)c2ccccc2)CC1` [Cyclizine hydrochloride] is lower in “% Pdx1+ Ins1+” value: 1.15 for the first, 0.881 for the second.

First: Nc1ncnc2c1ncn2C1OC(COP(=O)(O)O)C(O)C1O (centres undefined) [Adenosine 5'-monophosphate monohydrate]
Second: CC[C@@H]1C(=O)OC[C@@H]1Cc1cncn1C [Pilocarpine nitrate]
The “% Pdx1+ Ins1+” value of the first is lower: 0.914 for the first, 0.93 for the second.

Going from `CCc1cccc(CC)c1NC(=O)CN(CC(=O)O)CC(=O)O` [Etifenin] to `O=C(CCNNC(=O)c1ccncc1)NCc1ccccc1` [Nialamide], the “% Pdx1+ Ins1+” value falls from 0.945 to 0.802.

First: CN/C(=N\CCSCc1nc[nH]c1C)NC#N [Cimetidine]
Second: O=C(O)c1cc(/N=N/c2ccc(S(=O)(=O)Nc3ccccn3)cc2)ccc1O [Sulfasalazine]
The “% Pdx1+ Ins1+” value of the first is higher: 1.03 for the first, 0.829 for the second.

First: C/C=C(/C(=C/C)c1ccc(O)cc1)c1ccc(O)cc1 [Dienestrol]
Second: O=C(O)c1ccccc1C(=O)Nc1ccc(S(=O)(=O)Nc2nccs2)cc1 [Phthalylsulfathiazole]
The “% Pdx1+ Ins1+” value of the first is lower: 0.849 for the first, 0.983 for the second.

First: Nc1cc(N2CCCCC2)nc(N)[n+]1[O-] [Minoxidil]
Second: OCCN(CCO)c1nc(N2CCCCC2)c2nc(N(CCO)CCO)nc(N3CCCCC3)c2n1 [Dipyridamole]
The “% Pdx1+ Ins1+” value of the first is lower: 1.04 for the first, 1.12 for the second.

First: O=c1n(CCCN2CCN(c3cccc(Cl)c3)CC2)nc2ccccn12 [Trazodone hydrochloride]
Second: COC(=O)C1=CO[C@@H](C)[C@H]2CN3CCc4c([nH]c5ccccc45)[C@@H]3C[C@H]12 [Ajmalicine hydrochloride]
The “% Pdx1+ Ins1+” value of the first is higher: 1.16 for the first, 0.946 for the second.

Going from `NC(=O)c1cnccn1` [Pyrazinamide] to `CN1C(=O)CC[C@H]1c1cccnc1` [Cotinine (-)], the “% Pdx1+ Ins1+” value rises from 0.951 to 1.05.

Going from `C=C(C)[C@@H]1CC[C@]2(CO)CC[C@]3(C)[C@H](CC[C@@H]4[C@@]5(C)CC[C@H](O)C(C)(C)[C@@H]5CC[C@]43C)[C@@H]12` [Betulin] to `CC(=O)O[C@H]1C(=O)[C@@]2(C)[C@H]([C@H](OC(=O)c3ccccc3)[C@]3(O)C[C@H](OC(=O)[C@H](O)[C@@H](NC(=O)c4ccccc4)c4ccccc4)C(C)=C1C3(C)C)[C@]1(OC(C)=O)CO[C@@H]1C[C@@H]2O` [Paclitaxel], the “% Pdx1+ Ins1+” value rises from 0.904 to 1.09.

Compared with `NS(=O)(=O)c1cc2c(cc1C(F)(F)F)NCNS2(=O)=O` [Hydroflumethiazide], `CO[C@@H]1[C@@H](O[C@@H]2O[C@H](C)[C@@H](O[C@H]3C[C@@](C)(O)[C@@H](OC(=O)CC(C)C)[C@H](C)O3)[C@H](N(C)C)[C@H]2O)[C@@H](CC=O)C[C@@H](C)[C@@H](O)/C=C/C=C/C[C@@H](C)OC(=O)C[C@H]1OC(C)=O` [Josamycin] is lower in “% Pdx1+ Ins1+” value: 1.15 for the first, 1.07 for the second.

With `CCC(=O)O[C@@H]1CC(=O)O[C@H](C)C/C=C/C=C/[C@H](O)[C@H](C)C[C@H](CC=O)[C@H](O[C@@H]2O[C@H](C)[C@@H](O[C@H]3C[C@@](C)(O)[C@@H](OC(=O)CC)[C@H](C)O3)[C@H](N(C)C)[C@H]2O)[C@H]1OC` [Midecamycin] the “% Pdx1+ Ins1+” value was 1.07.
